Results are given in words; binding and its absence hold for the method and conditions named. In cells and extracts the contact can be indirect. Some results given as binding are weak or reduced against the parent protein; the word gives no strength.

By UniProt entry, the sequences of proteins in these tests, tags left out.
UniProt P01106: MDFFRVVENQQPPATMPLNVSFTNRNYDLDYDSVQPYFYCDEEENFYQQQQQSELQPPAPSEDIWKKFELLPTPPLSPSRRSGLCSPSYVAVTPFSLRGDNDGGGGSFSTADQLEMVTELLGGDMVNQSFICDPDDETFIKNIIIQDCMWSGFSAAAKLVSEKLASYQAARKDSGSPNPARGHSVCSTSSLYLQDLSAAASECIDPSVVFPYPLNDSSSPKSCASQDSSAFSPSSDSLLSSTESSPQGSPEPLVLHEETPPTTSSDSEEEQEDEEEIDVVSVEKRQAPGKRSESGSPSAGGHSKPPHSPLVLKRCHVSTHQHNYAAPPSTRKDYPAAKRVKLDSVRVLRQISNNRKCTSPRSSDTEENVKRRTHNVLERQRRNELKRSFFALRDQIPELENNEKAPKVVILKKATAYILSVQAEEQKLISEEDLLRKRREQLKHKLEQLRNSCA

This assay concerns the target c-Myc (UniProt P01106). The assay is described as follows: co-IP; lysates of three NPC cell lines incubated with antibodies; enriched proteins examined by western blotting. In general terms: In western blotting, separated proteins are transferred to a membrane and probed.

B1: SERPINH1 (protein, UniProt P50454 19-418)
chain: AEVKKPAAAAAPGTAEKLSPKAATLAERSAGLAFSLYQAMAKDQAVENILVSPVVVASSLGLVSLGGKATTASQAKAVLSAEQLRDEEVHAGLGELLRSLSNSTARNVTWKLGSRLYGPSSVSFADDFVRSSKQHYNCEHSKINFRDKRSALQSINEWAAQTTDGKLPEVTKDVERTDGALLVNAMFFKPHWDEKFHHKMVDNRGFMVTRSYTVGVMMMHRTGLYNYYDDEKEKLQIVEMPLAHKLSSLIILMPHHVEPLERLEKLLTKEQLKIWMGKMQKKAVAISLPKGVVEVTHDLQKHLAGLGLTEAIDKNKADLSRMSGKKDLYLASVFHATAFELDTDGNPFDQDIYGREELRSPKLFYADHPFIFLVRDTQSGSLLFIGRLVRPKGDKMRDEL
With B1, the binding entry is “binds”.

Source of the values: PMC8883650.
